From article PMC9599254, “Human Milk Oligosaccharide Utilization in Intestinal Bifidobacteria Is Governed by Global Transcriptional Regulator NagR” (mSystems, 2022)
For at least one entry, the source does not settle the construct or the ends of the probe. The comparison behind a weaker result is the experiment's own reference, which may not be listed here.

Tested on: NagR
Assay: EMSA
Conditions: 10 mM Tris-HCl pH 7.5, 50 mM KCl, 5 mM MgCl2, 2.25 mM DTT, 0.125% Tween 20, 2.5% glycerol, 1 nM probe, 0-2000 nM NagR, 60 min, room temperature, 6% gel, 0.5x TBE, recombinant protein, protein details: N-terminal His (pET-49b-derived), label: 5' IRD700 (strand 1)
[1] = EC50 range given for the two moderate probes, individual value only in Fig. 5
[2] = EC50 range given for the high-affinity probes as a group, individual value only in Fig. 5

CGGGACGCGCGGTAATTGTTAGTTGGGTTGACAATAAAAGAGCAAAGGC (double strand) [gltA probe]
binding result [1]: binds

GCCGATATTTCATATATGTTAAGGACGTTGACAAAATATCTCCCGAGAC (double strand) [hmoA probe]
binding result (0.1 mM GlcNAc, effect lost, 25 nM NagR): binds | binding result (0.1 mM GlcNAc-1P, effect lost, 25 nM NagR): binds | binding result (1 mM GlcNAc-6P, effect lost, 25 nM NagR): binds | binding result (10 mM GlcN-6P, complex not disrupted, 25 nM NagR): binds | binding result (10 mM GlcNAc, complex disrupted, effector EC50 0.33 +/- 0.05 mM, 25 nM NagR): binds more weakly | binding result (10 mM GlcNAc-1P, complex disrupted, effector EC50 0.49 +/- 0.06 mM, 25 nM NagR): binds more weakly | binding result (10 mM GlcNAc-6P, complex disrupted, 25 nM NagR): binds more weakly | binding result [2]: binds

GCGCGACTCACATATATGTTAAGAATGTTGACGAACTCCATCTCCCGTG (double strand) [hmoA3 probe]
binding result [1]: binds

TCACAAGGTCCAAAATTGTTAGTATCATTAACAAATAGCGAATCGCCAA (double strand) [nagB_I probe]
binding result [2]: binds

TCGCCTTGGGTGAATTTGTTAAGATAGTTGTCAATAGTCGGATGCACAC (double strand) [nagK probe]
binding result [2]: binds

TCGTGGTGCCACATATTGTTAGGCATGTTGACAAAATGCTGCGAAGAGG (double strand) [hmoA2 probe]
binding result [2]: binds
